Experimental data taken from patent US20230364121A1 (priority 2020, published 2023).
Some of these results come from one statement about several compounds together.

Molecular target: SARS-CoV-2 RTC (nsp9 labeling by nsp12) (Severe acute respiratory syndrome coronavirus 2, UniProt P0DTD1)
Test: nsp9-UMPylation competition assay
Assay type: biochemical
Conditions: equimolar concentrations to UTP; SARS-CoV-2 complex

Structure (SMILES)	inhibition of nsp9-UMPylation
C[C@@]1(F)[C@H](O)[C@@H](COP(=O)(O)OP(=O)(O)OP(=O)(O)O)O[C@H]1n1cnc2c(=O)[nH]c(N)nc21 [AT-9010, 2′-fluoro-2′-C-methylguanosine-5′-triphosphate]	85-90%
C[C@@]1(F)[C@H](O)[C@@H](COP(=O)(O)OP(=O)(O)OP(=O)(O)O)O[C@H]1n1ccc(=O)[nH]c1=O [STP, 5′-triphosphate 2′-fluoro-2′-C-methyl uridine]	85-90%
